# Measured values published in PubChem BioAssay AID2685 (National Center for Advancing Translational Sciences (NCATS), 2010).
# The other results are listed elsewhere or left out. Shown are side measurements of this screen, not its main read-out; they come without a call. Compounds called inactive in the main read-out are mostly missing here. The note in brackets gives the kind of curve behind each potency; many fits are weak.
# Assay: qHTS Assay for Lipid Storage Modulators in Drosophila S3 Cells;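 on cell number change: cells counted by Cell Tracker Red CMTPX staining in the red channel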
# Settings: BODIPY lipid droplet fluorescence, 18-24 h; for cell number change: measured here: cell count max response, cells fed with added oleic acid
# Summary of the method: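 Laser-scanning cytometry quantifies lipid droplet accumulation (500–530 nm total intensity; droplet/cell object ratio) in oleic acid-fed (400 uM added) Drosophila S3 cells treated with a concentration series. 20 uM Triacsin C defined 100% inhibition.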
# [1] = measured here: lipid fluorescence (Fed channel) AC50, cells fed with added oleic acid
# [2] = measured here: cell number channel AC50, cells fed with added oleic acid
Compound,cell number change [%],AC50 [1],AC50 [2]
N=C1SCC(=O)N1c1ncc(Cc2ccc(F)cc2)s1,-17.5,"4.61 µM [falling, partial curve, poor fit]",–
COC(=O)c1ccc(N2CCS(=O)(=O)CC2)cc1,11.7,–,–
CCCCn1c(N)c(N(CC(C)C)C(=O)CCNC(=O)c2ccc(Cl)cc2)c(=O)[nH]c1=O,6,–,–
CCOc1cc2[nH]c(=O)n(CC3CCC(C(=O)NCCCOC)CC3)c(=O)c2cc1OCC (configuration not stated),17.8,"0.00651 µM [falling, full curve, poor fit]",–
COc1ccccc1OCCNC1CCCC1,11.5,–,–
CCOC(=O)N1CCN(C(=O)COc2ccc(S(=O)(=O)NCC(C)C)cc2C)CC1,35.4,–,"32.6 µM [rising, single point]"
CCOc1ccc(N(CC)C(=O)CCNC(=O)Cn2ccc3ccccc3c2=O)cc1,-7.92,"6.51 µM [falling, single point]",–
Cn1c2ccccc2c2c(C(=O)O)cn(C3CCCC3)c(=O)c21,37.7,"5.8 µM [falling, single point]","29.1 µM [rising, single point]"
Cc1ccc(C)c(NC(=O)C2CCN(C(=O)c3cccs3)CC2)c1,19.8,"6.51 µM [rising, single point]",–
Cc1ccc(NC(=O)C/C(N)=N/OC(=O)Nc2cccc(C)c2)cc1,8.46,"0.651 µM [rising, full curve, poor fit]",–
COc1ccc(CSc2nnc(-c3ccncc3)n2C)cc1F,22.5,–,–
NC(=O)CSc1nc2cccnc2n1-c1ccc(F)cc1,-12.1,–,–
COc1cc(C(=O)OCC(=O)NC2CCCC2)cc(NC(=O)c2ccco2)c1OC,-8.31,–,"0.13 µM [falling, full curve, poor fit]"
CN(C)C(=O)c1nc2ccc(Cl)cn2c1CN1CCN(c2ncccn2)CC1,4.3,"9.2 µM [rising, partial curve, poor fit]",–
Cc1ccccc1OCC(=O)Nc1sc(C(=O)Nc2cccc(C)c2C)c(C)c1C#N,8.89,"16.4 µM [rising, single point]",–
N#Cc1nc(-c2ccc(F)cc2)oc1NCc1cccc2c1OCO2,1.99,–,–
CCOC(=O)C1(Cc2ccc(OC)cc2)CCN(C(=O)CN2CCCCC2=O)CC1,5.1,"0.164 µM [rising, full curve, poor fit]",–
O=C(Nc1sc2c(c1-c1nc3ccccc3[nH]1)CCCC2)C1CCCC1,-1.85,"29.1 µM [rising, single point]",–
Cc1[nH]c(C)c(S(=O)(=O)N2CCN(c3cccc(C(F)(F)F)c3)CC2)c1C(=O)N1CCCCC1,-11.2,–,–
CC(=O)N1c2ccccc2NC2=C(C(=O)CCC2)C1c1ccco1 (configuration not stated),–,"0.231 µM [falling, full curve, poor fit]",–
Cc1ccc(S(=O)(=O)N(C)c2ccc(OC(C)C(=O)N3CCCC3)cc2)cc1C (configuration not stated),22.6,"29.1 µM [rising, single point]",–

# 3 entries from above in another layout.
Compound	cell number change [%]	AC50 [1]	AC50 [2]
CCOC(=O)N1CCN(C(=O)COc2ccc(S(=O)(=O)NCC(C)C)cc2C)CC1	35.4	–	32.6 µM [rising, single point]
CCOc1ccc(N(CC)C(=O)CCNC(=O)Cn2ccc3ccccc3c2=O)cc1	-7.92	6.51 µM [falling, single point]	–
Cn1c2ccccc2c2c(C(=O)O)cn(C3CCCC3)c(=O)c21	37.7	5.8 µM [falling, single point]	29.1 µM [rising, single point]

# More entries follow:

Compound,cell number change [%],AC50 [1],AC50 [2]
COc1ccccc1-n1c2nc3ccccc3nc2c2c(=O)n(-c3cc(C)cc(C)c3)cnc21,-1.69,"1.46 µM [rising, full curve, poor fit]",–
Cc1ccc(CN(Cc2ccco2)C(=O)c2ccco2)cc1,141,"29.1 µM [falling, single point]","29.1 µM [rising, single point]"
O=C(CN1C(=O)/C(=C/c2ccco2)SC1=S)Nc1ccc(C(=O)O)c(O)c1,–,"25.9 µM [falling, single point]",–
Cc1ccc(/C=C2/SC(=S)N(c3ccc(S(=O)(=O)Nc4nccs4)cc3)C2=O)cc1,-68.9,"29.1 µM [falling, partial curve]","20.6 µM [falling, single point]"
O=C(/C=C/c1ccccc1)c1ccc2c3c(cccc13)CC2,-13.6,–,–
c1c(C2CCCCC2)n[nH]c1CN1CCCCC1,-13.7,"0.517 µM [falling, full curve, poor fit]",–
COc1ccc(-c2cc(C(=O)N(C)Cc3ccccc3F)c3ccccc3n2)cc1OC,-9.73,"4.11 µM [falling, single point]",–
CCOC(=O)N1CCC(=NNc2ncc(C(F)(F)F)cc2Cl)CC1,56.6,–,"0.82 µM [rising, full curve, poor fit]"
C/C(=N\NC(=O)c1ccc(Cn2cc(Br)cn2)o1)c1cccc(NC(=O)C(C)C)c1,23.6,"0.058 µM [rising, full curve, poor fit]",–
CCn1nc(C)c(CNC(=O)C2CCC(=O)N(CCc3ccc(Cl)cc3)C2)c1C (configuration not stated),14.7,–,–
CCCCN(C(=O)C(C)Oc1cccc(Cl)c1)c1c(N)n(CCC)c(=O)[nH]c1=O (configuration not stated),-7.36,–,–
Cc1ccc(S(=O)(=O)N2CCN(CC(=O)N/N=C/c3ccccc3OCC(=O)O)CC2)cc1,39.4,"23.1 µM [rising, single point]","16.4 µM [rising, single point]"
Fc1ccc(CNc2ccc(N3CCN(Cc4ccccc4)CC3)cc2)cc1,–,"0.00461 µM [rising, full curve, poor fit]",–
Cc1cc(SCCOc2ccccc2)nc(N)n1,-29.3,–,"0.00517 µM [falling, full curve, poor fit]"
CCN(CC)C1=N/C(=C\c2ccc(OC)cc2)C(=O)N1c1ccccc1,30.3,"1.46 µM [rising, partial curve]","5.8 µM [rising, partial curve]"
Cc1ccc(S(=O)(=O)C2(C(=O)N3CCN(c4ccccc4F)CC3)CC2)cc1,–,"0.631 µM [falling, full curve]",–
O=C(CCC(=O)N1CCOc2ccccc21)NCCCN1CCCCC1,16.7,–,"3.26 µM [rising, single point]"
CC1CCc2sc(C(=O)NNS(=O)(=O)c3ccc(F)c(F)c3F)cc2C1 (configuration not stated),-25.3,–,–
O=S1(=O)N=C(Nc2ccc(N3CCOCC3)c(Cl)c2)c2ccccc21,–,"29.1 µM [falling, single point]",–
O=C(CCc1nnc(Cc2c[nH]c3ccccc23)o1)NCC1CC12CCCCC2 (configuration not stated),-36.9,"0.259 µM [falling, full curve]","10.3 µM [falling, partial curve, poor fit]"
